Here are results for ten molecules from paper doi:10.1101/2021.07.16.452612.

The chains behind the UniProt entries cited, without tags or fusion partners. Residues count along the entry.
UniProt P26039: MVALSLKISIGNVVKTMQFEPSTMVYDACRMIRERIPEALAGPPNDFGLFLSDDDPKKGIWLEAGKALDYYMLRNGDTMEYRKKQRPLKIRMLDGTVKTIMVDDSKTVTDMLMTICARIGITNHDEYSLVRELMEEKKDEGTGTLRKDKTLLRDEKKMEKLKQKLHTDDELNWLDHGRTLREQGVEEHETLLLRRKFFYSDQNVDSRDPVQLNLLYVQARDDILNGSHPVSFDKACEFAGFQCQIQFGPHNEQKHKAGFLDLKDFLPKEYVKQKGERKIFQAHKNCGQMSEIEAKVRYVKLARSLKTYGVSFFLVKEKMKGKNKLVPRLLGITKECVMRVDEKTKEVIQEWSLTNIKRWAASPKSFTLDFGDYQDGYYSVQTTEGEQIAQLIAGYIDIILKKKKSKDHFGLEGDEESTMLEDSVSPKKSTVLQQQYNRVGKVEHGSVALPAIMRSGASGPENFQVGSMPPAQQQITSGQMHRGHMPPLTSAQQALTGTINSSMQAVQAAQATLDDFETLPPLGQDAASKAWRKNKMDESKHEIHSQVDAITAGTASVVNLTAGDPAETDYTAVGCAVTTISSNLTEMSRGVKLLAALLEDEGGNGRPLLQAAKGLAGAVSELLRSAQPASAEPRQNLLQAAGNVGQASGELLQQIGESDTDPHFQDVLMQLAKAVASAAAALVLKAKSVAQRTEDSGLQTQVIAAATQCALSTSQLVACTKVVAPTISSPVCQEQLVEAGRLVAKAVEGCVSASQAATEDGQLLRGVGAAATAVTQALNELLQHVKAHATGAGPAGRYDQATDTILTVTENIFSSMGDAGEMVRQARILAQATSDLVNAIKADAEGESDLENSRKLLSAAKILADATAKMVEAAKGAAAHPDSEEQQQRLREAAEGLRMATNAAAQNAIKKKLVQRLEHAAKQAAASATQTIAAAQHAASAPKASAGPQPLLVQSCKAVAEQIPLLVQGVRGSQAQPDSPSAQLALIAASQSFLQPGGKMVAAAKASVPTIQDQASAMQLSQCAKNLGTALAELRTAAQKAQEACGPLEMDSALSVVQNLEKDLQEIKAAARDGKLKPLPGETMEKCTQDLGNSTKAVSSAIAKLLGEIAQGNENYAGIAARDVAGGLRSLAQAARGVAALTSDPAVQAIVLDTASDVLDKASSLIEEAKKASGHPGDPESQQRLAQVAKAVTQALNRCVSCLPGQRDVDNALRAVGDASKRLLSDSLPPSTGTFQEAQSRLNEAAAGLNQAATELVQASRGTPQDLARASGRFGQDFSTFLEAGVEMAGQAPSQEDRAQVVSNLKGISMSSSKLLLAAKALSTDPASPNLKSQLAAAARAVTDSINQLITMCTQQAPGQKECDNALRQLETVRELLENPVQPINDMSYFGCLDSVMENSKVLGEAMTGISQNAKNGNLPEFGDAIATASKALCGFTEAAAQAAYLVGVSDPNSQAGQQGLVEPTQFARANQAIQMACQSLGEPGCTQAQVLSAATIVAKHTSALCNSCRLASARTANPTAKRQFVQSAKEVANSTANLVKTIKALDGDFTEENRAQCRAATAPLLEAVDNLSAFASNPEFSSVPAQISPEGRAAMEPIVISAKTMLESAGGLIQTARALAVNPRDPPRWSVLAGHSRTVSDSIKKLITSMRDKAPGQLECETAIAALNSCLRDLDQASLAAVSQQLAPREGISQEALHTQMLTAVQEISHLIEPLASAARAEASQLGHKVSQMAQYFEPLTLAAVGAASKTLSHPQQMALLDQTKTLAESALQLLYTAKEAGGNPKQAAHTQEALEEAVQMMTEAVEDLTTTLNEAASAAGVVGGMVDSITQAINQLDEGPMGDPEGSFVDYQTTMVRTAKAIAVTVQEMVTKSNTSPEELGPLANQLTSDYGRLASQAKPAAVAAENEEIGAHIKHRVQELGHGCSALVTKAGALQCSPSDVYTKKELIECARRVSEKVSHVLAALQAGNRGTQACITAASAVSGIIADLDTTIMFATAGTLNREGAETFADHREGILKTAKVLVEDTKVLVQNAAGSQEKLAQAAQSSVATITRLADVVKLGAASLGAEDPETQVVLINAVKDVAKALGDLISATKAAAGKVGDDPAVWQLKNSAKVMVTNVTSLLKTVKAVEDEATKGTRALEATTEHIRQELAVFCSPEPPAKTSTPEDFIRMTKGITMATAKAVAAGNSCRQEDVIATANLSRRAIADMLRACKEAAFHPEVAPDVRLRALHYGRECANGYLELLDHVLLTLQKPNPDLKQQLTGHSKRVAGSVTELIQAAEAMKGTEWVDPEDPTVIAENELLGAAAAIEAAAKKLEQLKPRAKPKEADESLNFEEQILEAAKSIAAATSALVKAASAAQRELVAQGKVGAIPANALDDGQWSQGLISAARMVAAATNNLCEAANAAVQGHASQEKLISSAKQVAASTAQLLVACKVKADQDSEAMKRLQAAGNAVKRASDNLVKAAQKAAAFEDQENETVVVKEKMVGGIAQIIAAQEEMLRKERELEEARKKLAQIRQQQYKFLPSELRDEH
UniProt Q05397: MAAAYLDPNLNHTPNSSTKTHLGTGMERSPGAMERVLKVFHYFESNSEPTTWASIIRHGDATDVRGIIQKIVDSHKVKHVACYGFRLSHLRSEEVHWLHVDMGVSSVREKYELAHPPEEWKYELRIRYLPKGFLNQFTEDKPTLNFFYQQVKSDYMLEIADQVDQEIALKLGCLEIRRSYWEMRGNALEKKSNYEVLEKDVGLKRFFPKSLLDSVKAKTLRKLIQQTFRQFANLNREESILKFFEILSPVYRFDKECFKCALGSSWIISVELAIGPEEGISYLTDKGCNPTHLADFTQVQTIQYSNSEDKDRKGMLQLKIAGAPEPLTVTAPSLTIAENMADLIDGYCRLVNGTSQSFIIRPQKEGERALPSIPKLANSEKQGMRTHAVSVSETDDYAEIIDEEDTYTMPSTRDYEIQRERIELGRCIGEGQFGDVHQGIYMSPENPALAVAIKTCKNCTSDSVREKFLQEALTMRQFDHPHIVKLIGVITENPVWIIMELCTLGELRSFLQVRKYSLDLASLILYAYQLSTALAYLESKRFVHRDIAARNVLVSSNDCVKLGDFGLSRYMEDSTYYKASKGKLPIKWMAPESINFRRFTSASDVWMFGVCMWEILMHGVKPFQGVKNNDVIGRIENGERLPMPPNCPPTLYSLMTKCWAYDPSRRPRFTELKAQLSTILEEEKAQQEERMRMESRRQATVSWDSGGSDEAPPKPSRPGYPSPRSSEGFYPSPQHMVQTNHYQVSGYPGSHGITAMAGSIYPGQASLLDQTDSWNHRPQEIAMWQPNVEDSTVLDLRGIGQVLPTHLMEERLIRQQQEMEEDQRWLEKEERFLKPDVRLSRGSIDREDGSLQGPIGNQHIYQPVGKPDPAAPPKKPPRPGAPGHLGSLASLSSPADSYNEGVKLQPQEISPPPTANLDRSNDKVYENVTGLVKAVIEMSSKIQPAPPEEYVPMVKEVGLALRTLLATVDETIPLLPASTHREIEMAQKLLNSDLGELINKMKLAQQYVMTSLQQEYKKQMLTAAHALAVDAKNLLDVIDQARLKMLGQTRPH
UniProt Q13418: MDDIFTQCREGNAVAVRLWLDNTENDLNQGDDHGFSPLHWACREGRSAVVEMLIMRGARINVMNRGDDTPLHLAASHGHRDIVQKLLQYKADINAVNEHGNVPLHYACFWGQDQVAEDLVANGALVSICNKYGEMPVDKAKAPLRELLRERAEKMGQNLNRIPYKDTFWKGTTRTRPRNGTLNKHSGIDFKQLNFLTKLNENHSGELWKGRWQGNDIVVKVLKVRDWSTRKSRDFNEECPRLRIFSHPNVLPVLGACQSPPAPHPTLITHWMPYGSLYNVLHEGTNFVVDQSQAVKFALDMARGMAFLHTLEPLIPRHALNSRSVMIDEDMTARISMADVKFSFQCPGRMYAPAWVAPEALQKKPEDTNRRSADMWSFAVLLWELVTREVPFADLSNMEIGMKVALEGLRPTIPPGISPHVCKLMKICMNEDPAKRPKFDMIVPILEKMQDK
UniProt P49023: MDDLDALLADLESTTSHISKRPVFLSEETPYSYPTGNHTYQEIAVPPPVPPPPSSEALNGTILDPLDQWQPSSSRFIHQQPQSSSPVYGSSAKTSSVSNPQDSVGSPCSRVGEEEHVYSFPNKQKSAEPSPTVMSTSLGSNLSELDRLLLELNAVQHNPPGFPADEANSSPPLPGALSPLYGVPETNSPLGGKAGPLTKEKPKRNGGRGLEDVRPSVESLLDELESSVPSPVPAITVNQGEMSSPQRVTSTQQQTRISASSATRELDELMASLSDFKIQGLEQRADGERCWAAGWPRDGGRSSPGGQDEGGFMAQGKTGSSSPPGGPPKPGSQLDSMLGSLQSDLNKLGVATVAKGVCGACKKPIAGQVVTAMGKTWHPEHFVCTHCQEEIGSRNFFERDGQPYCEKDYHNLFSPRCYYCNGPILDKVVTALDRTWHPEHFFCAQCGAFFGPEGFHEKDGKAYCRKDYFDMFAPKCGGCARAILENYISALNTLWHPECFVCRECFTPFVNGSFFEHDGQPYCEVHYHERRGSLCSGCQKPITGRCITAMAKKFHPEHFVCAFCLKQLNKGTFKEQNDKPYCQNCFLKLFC
UniProt P09055, residues 21-798: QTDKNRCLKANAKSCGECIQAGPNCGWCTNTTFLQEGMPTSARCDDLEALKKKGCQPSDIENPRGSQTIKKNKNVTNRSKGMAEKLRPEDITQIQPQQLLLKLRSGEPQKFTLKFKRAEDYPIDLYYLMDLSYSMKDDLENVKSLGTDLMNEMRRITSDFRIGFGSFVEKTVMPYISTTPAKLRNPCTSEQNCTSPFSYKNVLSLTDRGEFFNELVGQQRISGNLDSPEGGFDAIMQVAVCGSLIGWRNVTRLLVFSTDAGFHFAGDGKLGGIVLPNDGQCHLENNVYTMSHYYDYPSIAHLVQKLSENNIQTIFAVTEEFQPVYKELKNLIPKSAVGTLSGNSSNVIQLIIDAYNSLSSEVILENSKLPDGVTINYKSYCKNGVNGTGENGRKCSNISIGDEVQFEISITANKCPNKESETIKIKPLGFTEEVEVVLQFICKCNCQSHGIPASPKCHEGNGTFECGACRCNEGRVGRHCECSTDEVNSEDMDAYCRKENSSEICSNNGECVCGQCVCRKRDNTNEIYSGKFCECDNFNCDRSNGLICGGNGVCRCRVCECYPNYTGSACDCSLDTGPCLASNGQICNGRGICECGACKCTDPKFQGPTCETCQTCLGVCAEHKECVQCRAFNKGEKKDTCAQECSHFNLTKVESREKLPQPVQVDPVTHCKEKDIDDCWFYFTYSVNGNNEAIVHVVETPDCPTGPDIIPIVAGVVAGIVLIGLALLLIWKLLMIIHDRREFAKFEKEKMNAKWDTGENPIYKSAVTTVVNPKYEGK
UniProt Q8VI36: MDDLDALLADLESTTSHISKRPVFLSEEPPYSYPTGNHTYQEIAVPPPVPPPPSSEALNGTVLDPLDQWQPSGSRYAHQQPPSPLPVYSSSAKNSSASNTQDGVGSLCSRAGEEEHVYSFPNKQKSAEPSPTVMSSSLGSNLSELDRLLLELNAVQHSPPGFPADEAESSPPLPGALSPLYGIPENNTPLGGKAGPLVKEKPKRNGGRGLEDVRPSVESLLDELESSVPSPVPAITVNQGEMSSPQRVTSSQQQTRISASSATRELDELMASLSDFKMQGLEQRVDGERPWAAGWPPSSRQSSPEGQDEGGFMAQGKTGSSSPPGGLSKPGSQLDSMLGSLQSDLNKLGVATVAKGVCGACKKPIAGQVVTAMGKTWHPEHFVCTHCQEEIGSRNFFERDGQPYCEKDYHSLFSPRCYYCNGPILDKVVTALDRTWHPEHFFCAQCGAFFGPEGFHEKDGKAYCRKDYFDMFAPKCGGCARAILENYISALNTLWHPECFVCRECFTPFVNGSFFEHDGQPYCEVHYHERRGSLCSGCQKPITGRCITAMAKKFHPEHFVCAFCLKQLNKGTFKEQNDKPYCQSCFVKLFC

Common to all, as to test: mitochondrial targeting and recruitment assay
In one experiment the target is T1, mCh-tensin2-cBAK (human) (UniProt Q63HR2).
T1 sequence: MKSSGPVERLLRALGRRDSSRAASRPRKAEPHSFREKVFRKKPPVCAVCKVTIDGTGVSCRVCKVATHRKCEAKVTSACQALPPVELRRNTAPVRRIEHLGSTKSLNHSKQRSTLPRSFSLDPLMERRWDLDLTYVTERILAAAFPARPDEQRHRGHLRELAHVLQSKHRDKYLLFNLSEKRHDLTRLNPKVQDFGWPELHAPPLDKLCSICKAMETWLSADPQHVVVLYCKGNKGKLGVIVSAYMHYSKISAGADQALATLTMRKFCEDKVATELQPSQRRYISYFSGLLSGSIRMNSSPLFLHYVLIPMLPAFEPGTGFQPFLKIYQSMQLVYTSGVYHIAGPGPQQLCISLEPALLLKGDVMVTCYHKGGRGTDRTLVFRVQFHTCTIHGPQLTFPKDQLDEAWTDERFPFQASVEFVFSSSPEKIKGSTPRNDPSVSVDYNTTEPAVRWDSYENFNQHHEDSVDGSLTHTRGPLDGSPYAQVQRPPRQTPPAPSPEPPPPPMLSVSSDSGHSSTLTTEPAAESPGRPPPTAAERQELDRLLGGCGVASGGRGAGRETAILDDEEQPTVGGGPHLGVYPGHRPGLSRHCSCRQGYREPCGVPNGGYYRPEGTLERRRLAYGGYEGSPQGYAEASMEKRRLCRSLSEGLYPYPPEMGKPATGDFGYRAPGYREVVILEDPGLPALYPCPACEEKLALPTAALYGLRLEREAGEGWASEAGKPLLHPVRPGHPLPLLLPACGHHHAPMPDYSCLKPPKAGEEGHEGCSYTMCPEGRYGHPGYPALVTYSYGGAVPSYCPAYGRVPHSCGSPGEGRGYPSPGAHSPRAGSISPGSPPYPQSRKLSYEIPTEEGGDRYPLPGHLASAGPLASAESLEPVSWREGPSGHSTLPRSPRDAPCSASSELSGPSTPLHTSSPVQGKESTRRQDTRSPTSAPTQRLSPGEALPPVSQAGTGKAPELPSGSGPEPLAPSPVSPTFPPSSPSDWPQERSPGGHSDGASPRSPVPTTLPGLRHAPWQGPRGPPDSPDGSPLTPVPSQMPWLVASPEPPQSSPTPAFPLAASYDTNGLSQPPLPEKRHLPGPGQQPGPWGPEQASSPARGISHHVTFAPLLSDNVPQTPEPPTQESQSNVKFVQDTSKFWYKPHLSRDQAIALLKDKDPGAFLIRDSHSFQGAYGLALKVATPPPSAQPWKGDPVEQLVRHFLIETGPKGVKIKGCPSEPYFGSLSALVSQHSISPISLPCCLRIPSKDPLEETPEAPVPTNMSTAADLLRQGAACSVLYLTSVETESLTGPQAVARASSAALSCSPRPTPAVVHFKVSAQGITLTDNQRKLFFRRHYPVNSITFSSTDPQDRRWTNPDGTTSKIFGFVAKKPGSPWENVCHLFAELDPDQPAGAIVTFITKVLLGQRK

The target of experiment [1] is T2, mCh-tensin3-FL-cBAK (human) (UniProt Q68CZ2).
T2 sequence: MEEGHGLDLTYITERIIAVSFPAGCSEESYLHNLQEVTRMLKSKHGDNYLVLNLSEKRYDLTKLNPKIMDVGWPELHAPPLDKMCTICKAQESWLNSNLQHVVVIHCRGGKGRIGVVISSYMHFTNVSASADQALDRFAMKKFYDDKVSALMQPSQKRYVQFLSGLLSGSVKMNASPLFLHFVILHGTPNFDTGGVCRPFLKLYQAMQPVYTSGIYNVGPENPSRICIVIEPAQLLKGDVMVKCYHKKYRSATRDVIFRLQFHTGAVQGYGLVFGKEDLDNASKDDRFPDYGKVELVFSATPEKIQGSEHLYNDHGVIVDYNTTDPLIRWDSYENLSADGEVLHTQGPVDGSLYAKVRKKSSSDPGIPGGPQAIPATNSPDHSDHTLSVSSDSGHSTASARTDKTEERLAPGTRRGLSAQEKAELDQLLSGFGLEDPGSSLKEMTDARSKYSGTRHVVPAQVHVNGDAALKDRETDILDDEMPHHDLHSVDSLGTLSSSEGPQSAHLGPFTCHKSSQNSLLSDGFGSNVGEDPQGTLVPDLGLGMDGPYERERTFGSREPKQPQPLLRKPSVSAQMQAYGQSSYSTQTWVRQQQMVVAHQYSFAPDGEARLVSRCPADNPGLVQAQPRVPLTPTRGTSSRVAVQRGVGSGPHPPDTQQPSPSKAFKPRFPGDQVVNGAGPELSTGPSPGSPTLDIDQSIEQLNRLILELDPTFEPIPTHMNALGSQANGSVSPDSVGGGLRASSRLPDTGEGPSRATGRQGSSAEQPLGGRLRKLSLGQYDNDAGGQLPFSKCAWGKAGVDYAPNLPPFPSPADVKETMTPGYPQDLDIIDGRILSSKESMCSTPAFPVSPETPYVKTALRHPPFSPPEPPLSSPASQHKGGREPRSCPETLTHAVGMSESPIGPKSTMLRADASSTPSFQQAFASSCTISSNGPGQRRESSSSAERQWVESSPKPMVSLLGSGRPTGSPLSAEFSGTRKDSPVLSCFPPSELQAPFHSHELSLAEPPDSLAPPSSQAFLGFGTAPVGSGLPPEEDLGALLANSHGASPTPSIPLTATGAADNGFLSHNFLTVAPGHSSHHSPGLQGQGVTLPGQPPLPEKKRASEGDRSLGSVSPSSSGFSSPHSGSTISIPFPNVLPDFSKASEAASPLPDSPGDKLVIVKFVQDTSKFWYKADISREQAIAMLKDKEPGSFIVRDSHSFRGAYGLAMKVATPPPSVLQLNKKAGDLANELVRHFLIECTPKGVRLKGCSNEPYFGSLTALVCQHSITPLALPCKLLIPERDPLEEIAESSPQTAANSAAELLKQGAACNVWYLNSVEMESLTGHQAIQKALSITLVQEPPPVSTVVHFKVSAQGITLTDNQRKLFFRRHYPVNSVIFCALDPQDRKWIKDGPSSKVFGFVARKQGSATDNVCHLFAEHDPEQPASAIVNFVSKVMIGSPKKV

In experiment [2] the target is T2, mCh-tensin3-FL-cBAK (human). This is another data set of the same source.
In the next experiment the target is mCh-talinFL-cBAK (UniProt P26039).

Read-outs that look alike come from different tables or passages of the source. No constants are given. Whether binding was seen depends on the method and setting. Some results given as binding are weak or reduced against the parent protein; the word gives no strength. For some assays here: Where a sequence is shown, tags or fusion partners need not be part of it.

For the molecule GFP-FAK (from UniProt Q05397 1-1052), the binding result with mCh-tensin2-cBAK (human) is listed as “no binding”; in experiment [1] it was “binds”.
Regarding GFP-ILK (from UniProt Q13418 1-452), the binding entry (with mCh-tensin2-cBAK (human); in experiment [1]) was “binds” in each case.
As to “GFP-paxillin (from UniProt P49023 1-591)”, the binding result (with mCh-tensin2-cBAK (human); in experiment [1]) was “binds” throughout.
Turning to GFP-talin1 (from UniProt P26039 1-2541), the binding entry is “no binding” with mCh-tensin2-cBAK (human) and “binds” in experiment [1].
The matching figures for GFP-talin2 (from UniProt Q9Y4G6 1-2542): “no binding” and “binds”.
“active β1 integrin (9EG7 staining), endogenous (from UniProt P09055 21-798) (receptor)”: the binding result in experiment [1] is “no binding”.
The same measure, in the same setting: the result for “endogenous paxillin (from UniProt Q8VI36 1-591)” reads “binds”.
Turning to “endogenous talin1 (from UniProt P26039 1-2541)”, the binding entry in experiment [2] and in experiment [1] was “binds” in each case.

B1: GFP-tensin3-FLΔH1 (protein, UniProt Q68CZ2)
chain: MEEGHGLDLTYITERIIAVSFPAGCSEESYLHNLQEVTRMLKSKHGDNYLVLNLSEKRYDLTKLNPKIMDVGWPELHAPPLDKMCTICKAQESWLNSNLQHVVVIHCRGGKGRIGVVISSYMHFTNVSASADQALDRFAMKKFYDDKVSALMQPSQKRYVQFLSGLLSGSVKMNASPLFLHFVILHGTPNFDTGGVCRPFLKLYQAMQPVYTSGIYNVGPENPSRICIVIEPAQLLKGDVMVKCYHKKYRSATRDVIFRLQFHTGAVQGYGLVFGKEDLDNASKDDRFPDYGKVELVFSATPEKIQGSEHLYNDHGVIVDYNTTDPLIRWDSYENLSADGEVLHTQGPVDGSLYAKVRKKSSSDPGIPGGPQAIPATNSPDHSDHTLSVSSDSGHSTASARTDKTEERLAPGTRRGLSAQEKAELDQLLSGFGLEDPGSSLKEMTDARSKYSGTRHVVPAQVHVNGDAALKDRETDILDDEMPHHDLHSVDSLGTLSSSEGPQSAHLGPFTCHKSSQNSLLSDGFGSNVGEDPQGTLVPDLGLGMDGPYERERTFGSREPKQPQPLLRKPSVSAQMQAYGQSSYSTQTWVRQQQMVVAHQYSFAPDGEARLVSRCPADNPGLVQAQPRVPLTPTRGTSSRVAVQRGVGSGPHPPDTQQPSPSKAFKPRFPGDQVVNGAGPELSTGPSPGPTFEPIPTHMNALGSQANGSVSPDSVGGGLRASSRLPDTGEGPSRATGRQGSSAEQPLGGRLRKLSLGQYDNDAGGQLPFSKCAWGKAGVDYAPNLPPFPSPADVKETMTPGYPQDLDIIDGRILSSKESMCSTPAFPVSPETPYVKTALRHPPFSPPEPPLSSPASQHKGGREPRSCPETLTHAVGMSESPIGPKSTMLRADASSTPSFQQAFASSCTISSNGPGQRRESSSSAERQWVESSPKPMVSLLGSGRPTGSPLSAEFSGTRKDSPVLSCFPPSELQAPFHSHELSLAEPPDSLAPPSSQAFLGFGTAPVGSGLPPEEDLGALLANSHGASPTPSIPLTATGAADNGFLSHNFLTVAPGHSSHHSPGLQGQGVTLPGQPPLPEKKRASEGDRSLGSVSPSSSGFSSPHSGSTISIPFPNVLPDFSKASEAASPLPDSPGDKLVIVKFVQDTSKFWYKADISREQAIAMLKDKEPGSFIVRDSHSFRGAYGLAMKVATPPPSVLQLNKKAGDLANELVRHFLIECTPKGVRLKGCSNEPYFGSLTALVCQHSITPLALPCKLLIPERDPLEEIAESSPQTAANSAAELLKQGAACNVWYLNSVEMESLTGHQAIQKALSITLVQEPPPVSTVVHFKVSAQGITLTDNQRKLFFRRHYPVNSVIFCALDPQDRKWIKDGPSSKVFGFVARKQGSATDNVCHLFAEHDPEQPASAIVNFVSKVMIGSPKKV
B1: the binding result in the experiment with mCh-talinFL-cBAK is “no binding”.

B2: GFP-KANK2 (protein, UniProt Q63ZY3 1-851)
chain: MAQVLHVPAPFPGTPGPASPPAFPAKDPDPPYSVETPYGYRLDLDFLKYVDDIEKGHTLRRVAVQRRPRLSSLPRGPGSWWTSTESLCSNASGDSRHSAYSYCGRGFYPQYGALETRGGFNPRVERTLLDARRRLEDQAATPTGLGSLTPSAAGSTASLVGVGLPPPTPRSSGLSTPVPPSAGHLAHVREQMAGALRKLRQLEEQVKLIPVLQVKLSVLQEEKRQLTVQLKSQKFLGHPTAGRGRSELCLDLPDPPEDPVALETRSVGTWVRERDLGMPDGEAALAAKVAVLETQLKKALQELQAAQARQADPQPQAWPPPDSPVRVDTVRVVEGPREVEVVASTAAGAPAQRAQSLEPYGTGLRALAMPGRPESPPVFRSQEVVETMCPVPAAATSNVHMVKKISITERSCDGAAGLPEVPAESSSSPPGSEVASLTQPEKSTGRVPTQEPTHREPTRQAASQESEEAGGTGGPPAGVRSIMKRKEEVADPTAHRRSLQFVGVNGGYESSSEDSSTAENISDNDSTENEAPEPRERVPSVAEAPQLRPAGTAAAKTSRQECQLSRESQHIPTAEGASGSNTEEEIRMELSPDLISACLALEKYLDNPNALTERELKVAYTTVLQEWLRLACRSDAHPELVRRHLVTFRAMSARLLDYVVNIADSNGNTALHYSVSHANFPVVQQLLDSGVCKVDKQNRAGYSPIMLTALATLKTQDDIETVLQLFRLGNINAKASQAGQTALMLAVSHGRVDVVKALLACEADVNVQDDDGSTALMCACEHGHKEIAGLLLAVPSCDISLTDRDGSTALMVALDAGQSEIASMLYSRMNIKCSFAPMSDDESPTSSSAEE
Turning to B2, the binding result is listed as “no binding” with mCh-tensin2-cBAK (human) and “binds” in experiment [1].
